Data taken from patent US11981693B2, “Organogermanium compound” (ASAI Germanium Research Institute Co., Ltd., priority 2019, dated 2024).

What was measured:
[1] = Interactivity with adenosine by 1H NMR of a mixed solution; conditions: molar ratio 1:1, pH 7.0 to 7.5, 100 mM, heavy water, 30° C.
Description: The ^1H NMR spectrum of a mixed solution obtained by dissolving the THGP octamer and adenosine (mixing molar ratio 1:1, pH 7.0 to 7.5, 100 mM) in heavy water was measured under the measurement conditions of 30° C., scan times of 16, and 300 MHz. The signal of residual HOD was offset to 4.80 ppm. For comparison, a mixed solution of Ge-132 and adenosine was measured in the same way.

[2] = Interactivity with H2S (NaHS) by 1H NMR of a mixed solution; conditions: molar ratio 1:1, pH 7.0 to 7.5, 20 mM, 10 mM phosphate buffer pH 7.4 in heavy water, 25° C.
Description: The ^1H NMR spectrum of a mixed solution obtained by dissolving the THGP octamer and NaHS (a sodium salt of H2S) (mixing molar ratio 1:1, pH 7.0 to 7.5, 20 mM) in a 10 mM phosphate buffer (pH 7.4) prepared with heavy water, was measured under the measurement conditions of 25° C., scan times of 16, and 300 MHz. The signal of residual HOD was offset to 4.80 ppm. For comparison, a mixed solution of Ge-132 and NaHS was measured in the same manner.

Row | Substance | reactivity with adenosine (new 1H NMR signals of complex with THGP) [1] | reactivity with NaHS (new 1H NMR signals of complex with THGP) [2]
1 | poly-trans-[(2-carboxyethyl)germasesquioxane] [Ge-132, reference compound] | shows reactivity with adenosine | shows reactivity with NaHS
2 | 1,7,9,15-tetra(2′-sodium carboxyethylgermanium)-3,5,11,13-tetra-[sodium propanato(2-)-C^3′,O′]-germanium-2,4,6,8,10,12,14,16,17,18,19,20-dodecaoxa-pentacyclo[8.1^1,5.1^7,11.1^9,13.1^3,15.]icosane [THGP octamer] | shows reactivity with adenosine | shows reactivity with NaHS
